The other results are listed elsewhere or left out. The main result of the screen is listed elsewhere. These columns were measured beside it and carry no call. The list favours compounds with an active or inconclusive main result. Potencies come from curve fits of mixed quality, noted in brackets.
Assay: qHTS Assay to Find Inhibitors of Chronic Active B-Cell Receptor Signaling
Details: ABC-DLBCL IkBa-CBG/CBR reporter, luminescence ratio (green luciferase fused to IkBa over red control in TMD8 lymphoma cells), 4 h
Summary of the method: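 TMD8 human ABC-DLBCL cells with doxycycline-inducible IκBα–green luciferase fusion and unfused red luciferase, in 0.5% FBS medium; compounds up to 46 uM, 4 h at 37C. Green/red luminescence ratio, filter-overlap corrected, fitted to concentration-response curves.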

[1] = measured here: CBR red luminescence, cell number
[2] = measured here: IkBa-CBG green luminescence

SMILES	AC50 [1]	AC50 [2]
Cc1ccc2nc(N/N=C/c3ccccc3C#N)nc(-c3ccccc3)c2c1	2.24 µM [falling, full curve, poor fit]	
Cc1ccc(Oc2ccc(-c3nc(N)nc(N)n3)cc2)cc1C	29.1 µM [rising, single point]	32.6 µM [falling, partial curve, poor fit]
Nc1[nH]n(-c2ccccc2)c(=O)c1N=Nc1ccccc1	2.51 µM [falling, full curve]	
CC1(C)CCC[C@]2(C)[C@H]3Cc4cc(O)ccc4O[C@]3(C)CC[C@@H]12	32.6 µM [rising, single point]	
COC(=O)c1c(NC(=O)C2C3CCC(C3)C2C(=O)O)sc2c1CCCCC2 (stereo not drawn)	35.5 µM [rising, single point]	
CCOC(=O)c1ccc(NC(=O)c2ccccc2)cc1	18.4 µM [falling, single point]	
CCOc1ccc(C=NNc2ccc(S(=O)(=O)Nc3ccccc3C(=O)O)cc2[N+](=O)[O-])cc1OC	32.6 µM [rising, partial curve, poor fit]	
COc1ccc(/C(N)=N/OC(=O)Cc2ccc(C)cc2)cc1OC	4.61 µM [falling, single point]	
O=C(Cn1nnc(-c2ccc(F)cc2)n1)OCC(=O)c1ccccc1	22.4 µM [falling, partial curve, poor fit]	
O=C(Nc1ccccc1)C1=C[C@@H](c2ccccc2)C[C@@H](OCc2ccc(CO)cc2)O1	1.12 µM [falling, full curve]	
COc1ccc(C(=O)c2c(N)sc3c2CCN(C)C3)cc1	2.51 µM [falling, partial curve, poor fit]	
Cc1cccnc1Nc1nc(-c2ccc(O)c(O)c2)cs1	6.51 µM [falling, full curve]	
Cc1cccc(C)c1OCC(O)CNC(C)c1ccccc1 (stereo not drawn)	11.2 µM [falling, partial curve, poor fit]	
Cc1cc(/C=N/n2cnnc2)c(C)n1-c1ccc(OCc2ccc(Cl)cc2)cc1	18.4 µM [falling, partial curve]	
COc1ccc(C(CC(=O)O)NC(=O)c2cccs2)cc1 (stereo not drawn)	0.231 µM [rising, full curve, poor fit]	
CCOc1ccccc1C(=O)Nc1ccc2c(c1)N(C)C(=O)c1ccccc1S2	14.1 µM [falling, partial curve, poor fit]	

SMILES	AC50 [1]	AC50 [2]
O=C(CSC(=S)N1CCOCC1)Nc1nc(-c2ccccc2)c(-c2ccccc2)o1	0.447 µM [falling, full curve, poor fit]	
O=C(OCc1nc2ccccc2s1)C1CCN(S(=O)(=O)c2cccs2)CC1	25.9 µM [rising, single point]	
O=C(O)c1ccc(COc2ccc([N+](=O)[O-])cc2)o1	14.1 µM [falling, single point]	
COc1ccccc1NC(=O)c1nnn(CC(=O)Nc2ccccc2)c1N	1.84 µM [falling, full curve, poor fit]	
CCOC(=O)C1CCCN(C(=O)C2c3ccccc3Oc3ccccc32)C1 (stereo not drawn)	29.1 µM [falling, single point]	
CCOc1ccc(CCNC(=O)Cn2c(-c3nonc3N)nc3ccccc32)cc1OCC	29.1 µM [falling, single point]	
CCC[N+]1(CC#CC2(O)CCCCC2)CCOCC1	35.5 µM [falling, single point]	
CC(C)c1ccc(S(=O)(=O)/N=C2/C=C(Sc3ncn[nH]3)C(=O)c3ccccc32)cc1	0.82 µM [falling, full curve]	2.59 µM [rising, full curve]
Cc1ccc(C)c(Nc2c([N+](=O)[O-])ccc3nonc23)c1	0.501 µM [rising, full curve, poor fit]	
Nc1c(C(=O)c2ccc(Br)s2)oc2ccccc12	23.1 µM [falling, single point]	
O=C(c1ccco1)N1CCN(C(=O)C2CCCO2)CC1 (stereo not drawn)	0.00411 µM [rising, full curve, poor fit]	
CC(C)CCNC(=O)C(=O)Nc1ccc2c(c1)N(S(=O)(=O)c1cccs1)CCC2	20.6 µM [falling, partial curve]	
Cc1nc(NCCc2ccc(O)cc2)c2nnn(Cc3ccccc3)c2n1	22.4 µM [falling, single point]	
O=C(O)c1cccc(OS(=O)(=O)c2cc(Br)ccc2Br)c1	18.4 µM [rising, single point]	
Cc1nc(NC(=S)NC(=O)c2ccco2)sc1C(=O)N(C)C	10 µM [falling, partial curve]	

Grouped by structure: the compounds so far with an NH in an aromatic ring (2)
SMILES	AC50 [1]	AC50 [2]
Nc1[nH]n(-c2ccccc2)c(=O)c1N=Nc1ccccc1	2.51 µM [falling, full curve]	
CC(C)c1ccc(S(=O)(=O)/N=C2/C=C(Sc3ncn[nH]3)C(=O)c3ccccc32)cc1	0.82 µM [falling, full curve]	2.59 µM [rising, full curve]

From PubChem BioAssay AID493014 (National Center for Advancing Translational Sciences (NCATS), 2011)
